Results from the supplement of paper PMC10849652.
This is one part of the list.

The chains behind the UniProt entries cited, without tags or fusion partners. Where a name states a change or a piece, a line headed by the entry shows the natural chain unless it says otherwise.
UniProt Q9NWV8, whole entry, looked up: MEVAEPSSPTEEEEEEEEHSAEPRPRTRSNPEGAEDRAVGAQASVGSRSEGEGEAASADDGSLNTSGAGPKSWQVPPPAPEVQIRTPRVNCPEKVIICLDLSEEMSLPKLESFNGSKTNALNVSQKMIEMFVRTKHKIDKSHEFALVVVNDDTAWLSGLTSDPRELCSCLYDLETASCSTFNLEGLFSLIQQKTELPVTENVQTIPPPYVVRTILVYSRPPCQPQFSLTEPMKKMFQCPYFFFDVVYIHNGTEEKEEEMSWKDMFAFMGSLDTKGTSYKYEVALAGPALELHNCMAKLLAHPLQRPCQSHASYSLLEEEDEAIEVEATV
UniProt Q9UQB8: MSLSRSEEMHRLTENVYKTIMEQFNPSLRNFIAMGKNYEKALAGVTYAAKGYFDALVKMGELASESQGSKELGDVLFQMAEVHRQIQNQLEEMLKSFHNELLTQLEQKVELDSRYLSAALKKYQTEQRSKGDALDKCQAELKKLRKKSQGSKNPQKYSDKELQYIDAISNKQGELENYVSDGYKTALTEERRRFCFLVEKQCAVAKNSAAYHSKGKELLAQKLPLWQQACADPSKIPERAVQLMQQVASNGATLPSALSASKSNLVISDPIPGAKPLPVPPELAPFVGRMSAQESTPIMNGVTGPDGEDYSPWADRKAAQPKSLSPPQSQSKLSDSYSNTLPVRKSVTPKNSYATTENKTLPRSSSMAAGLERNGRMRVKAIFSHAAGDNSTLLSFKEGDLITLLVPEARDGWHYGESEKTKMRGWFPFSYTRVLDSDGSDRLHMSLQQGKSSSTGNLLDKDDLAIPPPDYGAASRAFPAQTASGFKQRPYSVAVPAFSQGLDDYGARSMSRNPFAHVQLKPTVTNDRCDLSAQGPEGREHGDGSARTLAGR
UniProt Q96G01: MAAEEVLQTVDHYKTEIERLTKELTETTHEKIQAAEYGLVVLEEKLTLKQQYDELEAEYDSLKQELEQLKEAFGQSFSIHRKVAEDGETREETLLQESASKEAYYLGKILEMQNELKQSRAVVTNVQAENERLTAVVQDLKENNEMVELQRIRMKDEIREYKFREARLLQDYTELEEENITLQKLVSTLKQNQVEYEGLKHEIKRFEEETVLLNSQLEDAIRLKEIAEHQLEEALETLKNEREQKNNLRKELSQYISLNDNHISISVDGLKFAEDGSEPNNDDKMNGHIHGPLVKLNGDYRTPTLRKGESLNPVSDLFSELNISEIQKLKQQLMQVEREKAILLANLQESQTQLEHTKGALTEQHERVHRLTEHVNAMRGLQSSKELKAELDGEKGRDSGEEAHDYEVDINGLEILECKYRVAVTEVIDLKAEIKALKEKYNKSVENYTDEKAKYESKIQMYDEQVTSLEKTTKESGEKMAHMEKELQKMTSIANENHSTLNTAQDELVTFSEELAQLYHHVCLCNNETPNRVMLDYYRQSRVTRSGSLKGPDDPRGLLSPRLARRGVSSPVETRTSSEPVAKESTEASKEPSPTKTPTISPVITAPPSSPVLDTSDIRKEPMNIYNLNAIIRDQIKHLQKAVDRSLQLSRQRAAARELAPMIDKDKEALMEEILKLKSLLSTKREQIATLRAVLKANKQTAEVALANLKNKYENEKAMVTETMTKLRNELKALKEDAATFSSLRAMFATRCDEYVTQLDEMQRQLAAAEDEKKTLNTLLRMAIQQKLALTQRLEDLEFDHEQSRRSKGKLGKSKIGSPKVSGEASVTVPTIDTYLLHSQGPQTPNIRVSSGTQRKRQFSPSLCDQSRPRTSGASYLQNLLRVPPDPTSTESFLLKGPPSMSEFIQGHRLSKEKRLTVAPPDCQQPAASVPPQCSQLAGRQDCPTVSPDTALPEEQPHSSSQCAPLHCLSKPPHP
UniProt Q13867: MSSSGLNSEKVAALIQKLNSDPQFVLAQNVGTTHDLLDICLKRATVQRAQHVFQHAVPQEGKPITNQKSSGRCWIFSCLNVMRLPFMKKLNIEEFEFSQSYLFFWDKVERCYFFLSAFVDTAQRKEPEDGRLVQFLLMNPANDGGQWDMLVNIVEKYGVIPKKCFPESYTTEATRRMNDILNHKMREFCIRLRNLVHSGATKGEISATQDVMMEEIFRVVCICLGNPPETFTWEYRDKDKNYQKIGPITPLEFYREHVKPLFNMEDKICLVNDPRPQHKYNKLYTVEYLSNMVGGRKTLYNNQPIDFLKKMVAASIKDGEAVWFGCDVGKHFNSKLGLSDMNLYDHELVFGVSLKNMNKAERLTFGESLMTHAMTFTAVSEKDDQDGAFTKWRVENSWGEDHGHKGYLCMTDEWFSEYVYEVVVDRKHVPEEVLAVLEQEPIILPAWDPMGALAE
UniProt Q7Z569: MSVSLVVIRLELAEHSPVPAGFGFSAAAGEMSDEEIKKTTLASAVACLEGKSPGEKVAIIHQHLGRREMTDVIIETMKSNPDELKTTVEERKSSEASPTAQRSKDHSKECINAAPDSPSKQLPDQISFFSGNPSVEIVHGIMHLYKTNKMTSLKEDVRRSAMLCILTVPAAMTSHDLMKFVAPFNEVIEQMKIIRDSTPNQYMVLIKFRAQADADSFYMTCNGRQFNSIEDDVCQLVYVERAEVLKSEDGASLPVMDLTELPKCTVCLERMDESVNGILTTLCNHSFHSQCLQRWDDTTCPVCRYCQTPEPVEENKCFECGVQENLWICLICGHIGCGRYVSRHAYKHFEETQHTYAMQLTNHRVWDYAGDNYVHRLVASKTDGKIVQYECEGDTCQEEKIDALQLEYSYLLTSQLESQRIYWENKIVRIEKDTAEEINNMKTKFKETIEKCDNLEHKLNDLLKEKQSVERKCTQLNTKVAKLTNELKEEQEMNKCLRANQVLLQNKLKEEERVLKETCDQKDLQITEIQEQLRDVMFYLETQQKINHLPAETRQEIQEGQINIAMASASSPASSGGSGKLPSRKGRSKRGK
UniProt O43505: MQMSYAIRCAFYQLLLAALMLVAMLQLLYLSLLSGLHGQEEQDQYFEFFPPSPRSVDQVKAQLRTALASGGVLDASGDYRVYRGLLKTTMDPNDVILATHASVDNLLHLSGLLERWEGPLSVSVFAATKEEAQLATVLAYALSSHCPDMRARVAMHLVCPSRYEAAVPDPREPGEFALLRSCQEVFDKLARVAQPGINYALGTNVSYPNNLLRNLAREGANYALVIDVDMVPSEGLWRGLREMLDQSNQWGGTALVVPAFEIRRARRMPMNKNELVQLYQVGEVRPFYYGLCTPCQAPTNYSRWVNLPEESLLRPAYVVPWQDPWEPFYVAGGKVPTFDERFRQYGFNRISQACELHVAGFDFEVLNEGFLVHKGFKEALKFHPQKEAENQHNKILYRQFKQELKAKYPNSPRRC
UniProt Q92843: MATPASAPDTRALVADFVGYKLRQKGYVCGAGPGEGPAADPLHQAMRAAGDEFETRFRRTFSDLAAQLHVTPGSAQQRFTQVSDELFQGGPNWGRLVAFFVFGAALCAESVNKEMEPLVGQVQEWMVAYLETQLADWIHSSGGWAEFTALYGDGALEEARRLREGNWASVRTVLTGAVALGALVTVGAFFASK
UniProt O75531: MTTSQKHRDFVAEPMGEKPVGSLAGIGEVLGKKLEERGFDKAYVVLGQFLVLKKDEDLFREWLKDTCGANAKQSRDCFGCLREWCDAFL
UniProt O94766: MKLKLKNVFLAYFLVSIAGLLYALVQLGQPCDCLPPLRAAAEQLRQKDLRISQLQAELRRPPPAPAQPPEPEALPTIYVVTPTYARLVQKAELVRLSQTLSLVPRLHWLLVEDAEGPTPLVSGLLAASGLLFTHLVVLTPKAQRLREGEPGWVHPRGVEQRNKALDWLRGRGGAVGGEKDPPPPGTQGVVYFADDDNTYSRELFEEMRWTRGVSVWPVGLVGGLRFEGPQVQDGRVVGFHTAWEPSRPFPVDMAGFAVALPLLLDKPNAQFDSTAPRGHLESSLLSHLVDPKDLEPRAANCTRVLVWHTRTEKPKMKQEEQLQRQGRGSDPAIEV
UniProt P30043: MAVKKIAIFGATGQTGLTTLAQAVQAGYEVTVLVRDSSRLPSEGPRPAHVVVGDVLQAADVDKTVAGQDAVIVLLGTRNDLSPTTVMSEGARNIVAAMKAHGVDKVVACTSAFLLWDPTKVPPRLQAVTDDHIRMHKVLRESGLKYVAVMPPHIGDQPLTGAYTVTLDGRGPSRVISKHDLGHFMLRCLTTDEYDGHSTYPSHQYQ
UniProt Q9NYM9: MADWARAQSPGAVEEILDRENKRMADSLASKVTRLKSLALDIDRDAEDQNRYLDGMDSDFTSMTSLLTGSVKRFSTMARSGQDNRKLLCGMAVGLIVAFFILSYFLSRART
UniProt Q6Y288: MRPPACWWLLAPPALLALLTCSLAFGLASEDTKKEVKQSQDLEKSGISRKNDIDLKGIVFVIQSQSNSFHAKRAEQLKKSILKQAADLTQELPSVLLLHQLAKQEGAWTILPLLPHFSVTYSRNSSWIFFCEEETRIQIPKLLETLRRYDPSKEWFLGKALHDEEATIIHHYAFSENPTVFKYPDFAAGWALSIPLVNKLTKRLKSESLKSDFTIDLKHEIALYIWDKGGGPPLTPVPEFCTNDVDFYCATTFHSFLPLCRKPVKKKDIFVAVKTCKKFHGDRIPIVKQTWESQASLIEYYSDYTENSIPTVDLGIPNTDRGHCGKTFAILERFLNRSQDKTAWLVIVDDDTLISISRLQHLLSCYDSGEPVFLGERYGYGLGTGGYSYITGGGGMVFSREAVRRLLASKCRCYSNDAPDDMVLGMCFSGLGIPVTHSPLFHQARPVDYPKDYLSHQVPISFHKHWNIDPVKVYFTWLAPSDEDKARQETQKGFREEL
UniProt P54132: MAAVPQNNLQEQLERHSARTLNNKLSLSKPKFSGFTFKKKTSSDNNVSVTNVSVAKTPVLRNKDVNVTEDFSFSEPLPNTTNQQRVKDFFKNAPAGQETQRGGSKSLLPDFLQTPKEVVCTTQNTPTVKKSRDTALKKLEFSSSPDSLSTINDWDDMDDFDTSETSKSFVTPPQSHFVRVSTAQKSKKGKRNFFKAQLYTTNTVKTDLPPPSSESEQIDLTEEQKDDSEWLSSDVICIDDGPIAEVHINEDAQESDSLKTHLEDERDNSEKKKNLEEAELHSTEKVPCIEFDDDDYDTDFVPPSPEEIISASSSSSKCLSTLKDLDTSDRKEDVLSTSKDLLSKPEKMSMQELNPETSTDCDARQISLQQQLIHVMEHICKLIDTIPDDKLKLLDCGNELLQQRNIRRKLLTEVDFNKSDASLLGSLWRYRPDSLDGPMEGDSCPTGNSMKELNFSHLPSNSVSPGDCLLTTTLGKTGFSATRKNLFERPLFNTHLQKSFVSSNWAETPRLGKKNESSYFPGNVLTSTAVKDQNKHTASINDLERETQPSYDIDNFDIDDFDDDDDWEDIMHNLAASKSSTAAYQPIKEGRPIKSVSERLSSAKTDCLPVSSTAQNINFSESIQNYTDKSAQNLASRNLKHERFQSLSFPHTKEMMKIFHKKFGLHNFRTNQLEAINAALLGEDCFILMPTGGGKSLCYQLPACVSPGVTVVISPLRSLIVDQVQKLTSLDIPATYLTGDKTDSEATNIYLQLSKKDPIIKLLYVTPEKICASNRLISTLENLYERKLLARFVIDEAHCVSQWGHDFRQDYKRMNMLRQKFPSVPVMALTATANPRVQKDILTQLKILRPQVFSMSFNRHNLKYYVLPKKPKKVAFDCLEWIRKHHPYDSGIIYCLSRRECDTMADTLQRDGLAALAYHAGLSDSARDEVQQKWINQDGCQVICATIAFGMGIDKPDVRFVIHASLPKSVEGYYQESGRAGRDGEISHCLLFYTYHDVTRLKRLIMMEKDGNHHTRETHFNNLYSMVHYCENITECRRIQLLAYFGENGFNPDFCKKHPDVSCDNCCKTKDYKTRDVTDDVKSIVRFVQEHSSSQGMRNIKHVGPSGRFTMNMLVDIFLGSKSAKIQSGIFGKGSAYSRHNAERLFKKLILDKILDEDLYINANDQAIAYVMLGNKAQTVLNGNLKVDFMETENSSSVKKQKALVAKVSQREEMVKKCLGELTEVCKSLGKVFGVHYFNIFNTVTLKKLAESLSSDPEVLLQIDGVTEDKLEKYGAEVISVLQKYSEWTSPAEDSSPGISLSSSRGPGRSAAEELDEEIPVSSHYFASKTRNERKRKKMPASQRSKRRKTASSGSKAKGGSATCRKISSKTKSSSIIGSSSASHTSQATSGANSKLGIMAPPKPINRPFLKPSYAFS
UniProt Q13825: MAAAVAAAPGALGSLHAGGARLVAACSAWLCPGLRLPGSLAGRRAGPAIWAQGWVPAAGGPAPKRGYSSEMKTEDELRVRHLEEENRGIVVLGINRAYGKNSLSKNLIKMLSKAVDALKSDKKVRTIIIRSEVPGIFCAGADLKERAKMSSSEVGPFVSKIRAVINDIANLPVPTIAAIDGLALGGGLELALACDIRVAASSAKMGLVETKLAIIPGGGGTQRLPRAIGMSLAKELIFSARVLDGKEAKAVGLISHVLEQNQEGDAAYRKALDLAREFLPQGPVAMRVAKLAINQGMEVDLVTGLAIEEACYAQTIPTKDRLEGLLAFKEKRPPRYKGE

What was measured:
Experiment in all cases: log2 fold change, soluble protein after heating vs DMSO (PISA); higher = thermal stabilisation; K562 cells, 10 uM, 30 min; active = over 0.2 and 3.5 SD of the protein, either way, in both replicates (recomputed)
[1] = compound: C#Cc1cccc(Nc2ncnc3cc(OCCOC)c(OCCOC)cc23)c1 [erlotinib]
Method in brief: (§1)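 Aliquots of K562 cells (2×10^6 cells/mL) treated with 10 μM compound for 30 min were heated for 3 min over 48°C-58°C. After pooling and extraction in PBS with 0.5% NP-40 at 4°C, soluble protein from a 21,000xg, 90 min spin was quantified by TMTpro 16plex LC-MS/MS with channel sums equalised. Thermal stability is expressed against control samples, from duplicates, as a log2 fold change.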

[2] = compound: C/C(=N\NC(=O)C1=CC(=CC=C1)S(=O)(=O)N2CCOCC2)/C3=C(C=CC(=C3)Cl)O
Method in brief: as §1

[3] = compound: C1=CC(=C(C=C1Cl)C2=NC3=NC=CN=C3C(=N2)NC4=CC=NC=C4)F
Method in brief: as §1

[4] = compound: C1=CC(=CC=C1C2=NC3=C(N2)C=C(C=C3)C(=O)N)OC4=CC=C(C=C4)Cl
Method in brief: as §1

[5] = compound: C1=CC2=C(C=CC(=C2)/C=C\3/C(=O)NC(=NCC4=CC=CS4)S3)N=C1
Method in brief: as §1

[6] = compound: C1=CC2=NC=CN=C2C=C1/C=C/3\C(=O)NC(=O)S3
Method in brief: as §1

[7] = compound: C1=CC=C(C=C1)C2=NC(=C(N2)C3=CC=NC=C3)C4=CC(=C(C=C4)Cl)O
Method in brief: as §1

[8] = compound: C1=CC=C2C(=C1)C3=NNC4=CC=CC(=C43)C2=O
Method in brief: as §1

[9] = compound: C1CCN(C1)C(=O)NC2=CC=CC(=C2)NC3=NC=C(C(=N3)NCCC4=CN=CN4)Br
Method in brief: as §1

[10] = compound: C1CN(CCC1(CC2=CC=C(C=C2)Cl)N)C3=NC=NC4=C3C=CN4
Method in brief: as §1

Measured: log2 fold change

BABAM1 (UniProt Q9NWV8)
inactive: [1] -0.019 | [2] -0.042 | [3] 0.003 | [4] 0.058 | [5] -0.028 | [6] -0.006 | [7] -0.004 | [8] -0.029 | [9] 0.029 | [10] 0.063

BORCS6 (UniProt Q96GS4)
inactive: [1] 0.032 | [2] 0.05 | [3] 0.068 | [4] 0.008 | [5] 0.055 | [6] 0.021 | [7] -0.023 | [8] -0.008 | [9] -0.024 | [10] -0.024

BLOC1S4 (UniProt Q9NUP1)
inactive: [1] 0.014 | [2] 0.026 | [3] 0.026 | [4] 0.013 | [5] 0.096 | [6] 0.025 | [7] 0.034 | [8] -0.038 | [9] -0.098 | [10] 0.01

BAIAP2 (UniProt Q9UQB8)
inactive: [1] 0.033 | [2] 0.089 | [3] 0.012 | [4] -0.008 | [5] 0.018 | [6] 0.017 | [7] 0.014 | [8] -0.063 | [9] -0.101 | [10] -0.016

BICD1 (UniProt Q96G01)
inactive: [1] 0.006 | [2] 0.064 | [3] -0.036 | [4] -0.022 | [5] 0.144 | [6] -0.008 | [7] 0.111 | [8] 0.04 | [9] -0.037 | [10] -0.046

B4GALT7 (UniProt Q9UBV7)
inactive: [1] 0.111 | [2] -0.007 | [3] 0.021 | [4] -0.02 | [5] 0.157 | [6] -0.079 | [7] 0.039 | [8] -0.018 | [9] 0.002 | [10] 0.025

BLMH (UniProt Q13867)
inactive: [1] -0.061 | [2] -0.052 | [3] 0.041 | [4] 0.029 | [5] -0.021 | [6] 0.001 | [7] -0.06 | [8] -0.011 | [9] -0.035 | [10] -0.012

ATR (UniProt Q13535)
inactive: [1] 0.014 | [2] -0.011 | [3] -0.039 | [4] 0.018 | [5] 0.02 | [6] 0.02 | [7] -0.017 | [8] 0.086 | [9] -0.029 | [10] 0.046

BCAP31 isoform 2 (UniProt P51572)
inactive: [1] 0.004 | [2] -0.014 | [3] 0.031 | [4] -0.011 | [5] -0.018 | [6] 0.031 | [7] -0.018 | [8] 0.043 | [9] 0.017 | [10] 0.038

BRAP (UniProt Q7Z569)
inactive: [1] 0.114 | [2] 0.09 | [3] 0.022 | [4] 0.012 | [5] 0.001 | [6] 0.032 | [7] 0.172 | [8] -0.023 | [9] -0.07 | [10] -0.059

BNIP2 (UniProt J3KN59)
inactive: [1] -0.017 | [2] 0.036 | [3] 0.04 | [4] 0.072 | [5] 0.087 | [6] 0.016 | [7] -0.072 | [8] -0.024 | [9] -0.004 | [10] 0.019

B4GAT1 (UniProt O43505)
inactive: [1] -0.037 | [2] 0.244 | [3] -0.035 | [4] 0.049 | [5] 0.18 | [6] -0.097 | [7] -0.012 | [8] -0.147 | [9] 0.105 | [10] 0.016

BET1 (UniProt O15155)
inactive: [1] 0.006 | [2] -0.042 | [3] 0.048 | [4] 0.078 | [5] 0.115 | [6] 0.069 | [7] 0.006 | [8] -0.072 | [9] -0.032 | [10] 0.004

BAHCC1 (UniProt Q9P281)
inactive: [1] 0.474 | [2] -0.293 | [3] -0.029 | [4] -0.107 | [5] 0.337 | [6] 0.101 | [7] -0.265 | [8] -0.035 | [9] 0.284 | [10] -0.019

BCL2L2 isoform 2 (UniProt Q92843)
inactive: [1] -0.069 | [2] 0.013 | [3] -0.131 | [4] -0.033 | [5] -0.003 | [6] 0.058 | [7] -0.017 | [8] -0.048 | [9] 0.037 | [10] -0.101

Reprinted at random: two entries already listed
BCL2L2 isoform 2 (UniProt Q92843)
inactive: [1] -0.069 | [2] 0.013 | [3] -0.131 | [4] -0.033 | [5] -0.003 | [6] 0.058 | [7] -0.017 | [8] -0.048 | [9] 0.037 | [10] -0.101

BAHCC1 (UniProt Q9P281)
inactive: [1] 0.474 | [2] -0.293 | [3] -0.029 | [4] -0.107 | [5] 0.337 | [6] 0.101 | [7] -0.265 | [8] -0.035 | [9] 0.284 | [10] -0.019

Next entries follow:

BANF1 (UniProt O75531)
inactive: [1] -0.018 | [2] -0.018 | [3] 0.187 | [4] 0.029 | [5] 0.187 | [6] 0.059 | [7] 0.073 | [8] -0.119 | [9] -0.036 | [10] -0.117

B3GAT3 (UniProt O94766)
inactive: [1] 0.004 | [2] 0.097 | [3] 0.008 | [4] -0.003 | [5] -0.031 | [6] 0.09 | [7] 0.051 | [8] 0.057 | [9] -0.097 | [10] -0.02

BLVRB (UniProt P30043)
active: [3] 0.237
inactive: [1] 0.03 | [2] 0.112 | [4] -0.031 | [5] -0.015 | [6] 0.072 | [7] 0.042 | [8] 0.014 | [9] 0.001 | [10] 0.056

BCCIP isoform 2 (UniProt Q9P287)
inactive: [1] -0.1 | [2] 0.023 | [3] 0.027 | [4] 0.026 | [5] -0.025 | [6] 0.003 | [7] 0.012 | [8] -0.007 | [9] -0.002 | [10] 0.066

BCL9L (UniProt Q86UU0)
inactive: [1] 0.01 | [2] -0.256 | [3] -0.008 | [4] 0.049 | [5] 0.036 | [6] -0.048 | [7] -0.128 | [8] 0.07 | [9] -0.052 | [10] 0.091

BET1L (UniProt Q9NYM9)
inactive: [1] 0.028 | [2] 0.201 | [3] 0.056 | [4] -0.078 | [5] 0.074 | [7] -0.045 | [8] -0.01 | [9] -0.031 | [10] -0.028

B3GLCT (UniProt Q6Y288)
inactive: [1] -0.011 | [2] -0.012 | [3] 0.111 | [4] -0.022 | [5] -0.01 | [6] 0.084 | [7] -0.035 | [8] 0.009 | [9] 0.013 | [10] 0.014

ATRN (UniProt O75882)
inactive: [1] 0.006 | [2] 0.037 | [3] -0.113 | [4] -0.148 | [5] 0.098 | [6] 0.04 | [8] -0.166 | [9] -0.052 | [10] 0.018

BPHL (UniProt Q86WA6)
inactive: [1] -0.016 | [2] 0.053 | [3] 0.057 | [4] -0.016 | [5] 0.142 | [6] 0.058 | [7] -0.028 | [8] 0.02 | [10] 0.182
active: [9] -0.38

BRD3 (UniProt Q15059)
inactive: [1] -0.282 | [2] -0.072 | [4] 0.061 | [5] -0.021 | [6] 0.071 | [7] 0.128 | [8] 0.059 | [9] -0.163 | [10] -0.024

BLM (UniProt P54132)
inactive: [1] -0.038 | [2] 0.015 | [4] -0.021 | [5] 0.146 | [6] 0.011 | [7] 0.027 | [8] 0.001 | [9] -0.039 | [10] 0.049

BRD8 isoform 2 (UniProt Q9H0E9)
inactive: [1] 0.157 | [2] 0.016 | [3] 0.029 | [4] 0.082 | [5] 0.035 | [6] 0.055 | [7] -0.152 | [8] -0.044 | [9] -0.027 | [10] 0.021

AUH (UniProt Q13825)
inactive: [1] 0.155 | [2] 0.042 | [4] -0.035 | [5] -0.122 | [6] 0.112 | [7] 0.039 | [8] 0.065 | [9] -0.028 | [10] 0.059
